A short description of this experiment: qHTS Assay for Lipid Storage Modulators in Drosophila S3 Cells.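 On cell number change: cells counted by Cell Tracker Red CMTPX staining in the red channel.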 Particulars: BODIPY lipid droplet fluorescence, 18-24 h; for cell number change: measured here: cell count max response, cells fed with added oleic acid. The gist of the method: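 Laser-scanning cytometry quantifies lipid droplet accumulation (500–530 nm total intensity; droplet/cell object ratio) in oleic acid-fed (400 uM added) Drosophila S3 cells treated with a concentration series. 20 uM Triacsin C defined 100% inhibition.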
On the technique in general: Quantitative high-throughput screening tests each substance at several concentrations.

Where [1] appears, read: measured here: lipid fluorescence (Fed channel) AC50, cells fed with added oleic acid.
Setting [2] is: measured here: cell number channel AC50, cells fed with added oleic acid.

SMILES strings stand for the structures. The list shows a part of the results. These are further read-outs of the screen, such as a control signal, another cell line or another target. No call is given for them. Most of these compounds were active or inconclusive in the main read-out, so they are no random draw. Potencies come from curve fits of mixed quality, noted in brackets.

What is called AC50 is the concentration at which the activity in the assay is half-maximal. Lower therefore signals activity at low concentration. Take `CCOC(=O)Cc1c(C)c2c(O)cc(O)cc2oc1=O`: under setting [1], the concentration at half-maximal activity (AC50) was 0.411 µM [falling, single point].
Turning to `O=C(c1nnc(-c2ccc(Cl)cc2)o1)C1CCCC1`, the cell number change came out at 73.2%. Further, the AC50 under setting [2] was 18.4 µM [rising, single point].
For `Cc1[nH]c(C)c(S(=O)(=O)N2CCN(c3cccc(Cl)c3)CC2)c1C(=O)N1CCCC1`, the cell number change was 4.45%.
As for `CC(C)(C)CN1CCC(n2nccc2NC(=O)c2ccccc2Cl)CC1`, the cell number change is -17.8%. Further, under setting [1], the AC50 was 6.51 µM [falling, single point].
For `COc1ccc2nc(SCCN(C)C)[nH]c2c1`, the cell number change was -9.79%. Under setting [1], the AC50 was 2.31 µM [falling, partial curve].
With `CC(=O)Nc1cccc([N+](=O)[O-])c1`, the cell number change turned out to be 5.89%. Further, the AC50 under setting [2] was 6.51 µM [falling, single point]. Also, the AC50 under setting [1] is 6.51 µM [falling, single point].
Regarding `Nc1c(Cl)cc(-c2cn(CCC(=O)O)c(-c3ccc(Cl)nc3)n2)cc1Cl`, the cell number change is 10.6%. Further, the AC50 under setting [1] was 11.6 µM [rising, partial curve, poor fit].
For the compound `O=C(Nc1nccs1)c1ccc(-c2ccccc2[N+](=O)[O-])o1`, the cell number change was -2.8%. In addition, under setting [1], the AC50 is 20.6 µM [falling, single point].
In the case of `Cc1ccnc(NC(c2ccccn2)c2c(C)[nH]c3ccccc23)c1` (configuration not stated), the cell number change is -41.9%. The AC50 under setting [2] was 20 µM [falling, partial curve, poor fit]. Further, under setting [1], the half-maximal activity concentration (AC50) is 22.4 µM [falling, single point].
With `CCSc1nnc(NC(=O)CN2C(=O)NC3(CCCC3)C2=O)s1`, the cell number change was -3.95%.
As to `CSc1nc2nc3c(c(=O)n2[nH]1)CCC3`, the cell number change was 13.9%.
Take `O=C(Nc1ccc(N2CCN(C(=O)c3ccco3)CC2)c(Cl)c1)c1cccs1`: the concentration at half-maximal activity (AC50) under setting [2] was 0.82 µM [rising, partial curve] and the concentration at half-maximal activity (AC50) under setting [1] is 1.46 µM [rising, partial curve].
As for `CCCc1cc(=O)n2[nH]c(NCc3ccc(Cl)cc3Cl)nc2n1`, the cell number change was -2.02%. Besides, the AC50 under setting [1] was 0.13 µM [falling, full curve, poor fit].
Regarding `CCOc1ccccc1NC(=O)NCc1ccccc1`, the cell number change was -22.3%. For the same compound, the AC50 under setting [2] was 0.731 µM [falling, single point]. The AC50 under setting [1] is 23.1 µM [falling, partial curve, poor fit].
Turning to `CCOC(=O)c1c(C)[nH]c(N=Nc2cccc(C)c2)c1C`, the cell number change is -92.3%. The AC50 under setting [2] is 5.8 µM [falling, full curve].
Take `COC(=O)c1ccc2c(c1)sc(=NC(=O)CCS(=O)(=O)c1ccccc1)n2C`: under setting [1], the AC50 is 4.11 µM [rising, partial curve, poor fit].
Consider `O=C(COC(=O)CCOc1ccccc1)Nc1ccc(Cl)cn1`, for which the cell number change is -18.5%. In addition, the AC50 under setting [2] is 0.146 µM [falling, full curve, poor fit]. The AC50 under setting [1] is 1.64 µM [falling, partial curve].
With `CCn1c(C)c(C(C)=O)c(N2CCN(c3ccccn3)CC2)nc1=S`, the cell number change turned out to be 5.19%.
In the case of `CCOc1ccc(N(C(=O)c2cc3ccccc3oc2=O)C2C=CS(=O)(=O)C2)cc1` (configuration not stated), the cell number change was 14.8%. The AC50 under setting [1] is 6.51 µM [falling, single point].
For `CCOc1ccccc1N(C)S(=O)(=O)c1ccc2[nH]cc(C(=O)N(CCOC)CCOC)c(=O)c2c1`, the cell number change is -16.3%. The half-maximal activity concentration (AC50) under setting [2] is 5.17 µM [rising, single point].
Consider `Cc1cccc(-n2cccc2)c1C#N`, for which the cell number change is 115%. Further, the AC50 under setting [2] is 0.82 µM [rising, single point].
As for `Cc1n[nH]c(C)c1Sc1ccccc1N=Cc1cc([N+](=O)[O-])ccc1O`, the cell number change amounted to 42.7%. Also, under setting [2], the AC50 is 5.8 µM [rising, full curve, poor fit]. In addition, the AC50 under setting [1] was 6.51 µM [rising, single point].
Consider `CCOC(=O)c1cnc2nc(NCc3ccc(OCc4ccccc4)cc3)[nH]n2c1=O`, for which the cell number change is -69%. In addition, under setting [2], the AC50 was 29.1 µM [falling, single point]. For the same compound, the AC50 under setting [1] is 29.1 µM [falling, single point].
As for `CN(CC(=O)Nc1cccc(F)c1)C(=O)c1ccc(N2CCOCC2)c([N+](=O)[O-])c1`, the cell number change is -10.2%.
Take `O=C(/C(Cl)=C/Nc1ccc(Br)cn1)C(F)(F)F`: the cell number change is -40.2%. Besides, the AC50 under setting [2] was 29.1 µM [falling, single point].
For `CCc1cccc(OCCOC(=O)CNS(=O)(=O)c2ccc(NC(C)=O)cc2)c1`, the cell number change came out at 5.5%.
As to `CCOC(=O)c1cnc(-n2nc(C)cc2C)nc1NCc1ccc2c(c1)OCO2`, the cell number change is -50.9%. Further, the AC50 under setting [2] was 29.1 µM [falling, single point]. Also, the AC50 under setting [1] was 0.461 µM [rising, partial curve, poor fit].
For the compound `Cc1sc(-n2c(C)cc(C=O)c2C)c(C(=O)O)c1C`, the cell number change was 35.7%. In addition, the AC50 under setting [2] was 23.1 µM [rising, partial curve, poor fit]. Under setting [1], the half-maximal activity concentration (AC50) is 3.66 µM [falling, full curve].
For `Cn1nc(C(=O)OCC(=O)Nc2ccc(Cl)cc2Cl)c2ccccc2c1=O`, the cell number change was -11.9%.
Regarding `Cc1cc(S(=O)(=O)Nc2ccc(C(=O)NCC3(N4CCCCC4)CCCCC3)cc2)ccc1F`, the cell number change was -32.3%. In addition, the AC50 under setting [2] is 3.66 µM [falling, full curve]. For the same compound, the AC50 under setting [1] is 4.11 µM [falling, full curve].
For the compound `CCCCCn1c(CN2CCN(c3cccc(Cl)c3)CC2)nc2c1c(=O)n(C)c(=O)n2C`, the cell number change is -26.7%. Also, the AC50 under setting [1] was 0.731 µM [rising, full curve].
For the compound `CCCOc1ccc(C(=O)CCNC(Cc2c[nH]c3ccccc23)C(=O)O)cc1` (configuration not stated), the cell number change is -14.8%. For the same compound, the AC50 under setting [1] is 11.6 µM [falling, single point].
For the compound `Cc1cc(NC(=O)CSc2nc3c(c(-c4cccnc4)c2C#N)CCC3)no1`, the cell number change was found to be 3.83%. The half-maximal activity concentration (AC50) under setting [1] was 0.82 µM [rising, partial curve].
On to `CSC(=S)N/N=C/c1ccc(N(C)C)cc1`, for which the cell number change was 15.4%.
For the compound `CC(C)(C)c1ccc(S(=O)(=O)Nc2ccc(Cc3ccncc3)cc2)cc1`, the cell number change is -16.7%. Further, the AC50 under setting [2] is 3.66 µM [falling, single point].
Take `CCn1c(=N)n(CC(=O)c2cccc([N+](=O)[O-])c2)c2ccccc21`: the cell number change is -17.7%. Further, under setting [1], the concentration at half-maximal activity (AC50) is 0.00461 µM [falling, full curve, poor fit].
Take `COC(=O)[C@@]1(Cc2ccc(F)cc2)[C@H]2c3cc(C(=O)N4CCCC4)n(CCCNc4ncc(C(F)(F)F)cc4Cl)c3C[C@H]2CN1C(=O)c1ccccc1`: the cell number change was -6.89%.
On to `COc1ccc(-c2nc3ccccc3c(=O)n2NC(=O)Cc2ccccc2)cc1`, for which the cell number change was -11.1%. Under setting [1], the AC50 is 29.1 µM [falling, single point].
For the compound `O=C(c1cccs1)N(CCO)Cc1cc2cc3c(cc2[nH]c1=O)OCCO3`, the cell number change was found to be 4.42%. Besides, the AC50 under setting [2] was 0.082 µM [falling, full curve, poor fit].
For `Cn1c(O)c(N=Nc2ccc(F)cc2)c2ccccc21`, the cell number change was 28.7%. Moreover, under setting [2], the AC50 is 1.3 µM [rising, full curve]. Also, the AC50 under setting [1] was 1.46 µM [rising, partial curve].
For the compound `O=c1nc2n(c3ccc([N+](=O)[O-])cc13)CCCCC2`, the cell number change was -29.4%.
For the compound `O=S(=O)(ON(c1ccccc1)S(=O)(=O)c1ccccc1)c1ccccc1`, the cell number change came to 6.38%. Further, under setting [1], the AC50 was 0.651 µM [falling, single point].
For the compound `Cc1ccc(NC(=O)Cn2cccc2)c(Br)c1`, the cell number change was -33.6%.
Regarding `Cc1ccc(CNC(=O)Cn2c(=O)n(CC(=O)N3CCCCC3)c(=O)c3sccc32)cc1`, the cell number change is -70.3%. For the same compound, under setting [2], the AC50 is 14.6 µM [falling, partial curve]. The AC50 under setting [1] was 5.17 µM [falling, single point].
As to `O=c1c2c3nc4ccccc4nc3n(Cc3ccccc3)c2ncn1Cc1ccco1`, the cell number change is -41.6%. Further, the AC50 under setting [2] was 10.3 µM [falling, partial curve].
With `CCN(CC(=O)Nc1cc(Cl)ccc1C)C(=O)c1oc2ccc(OC)cc2c1C`, the cell number change is 118%. The AC50 under setting [2] was 4.11 µM [rising, full curve].
For the compound `O=C(OCc1cccnc1)C1=Cc2ccccc2OC1`, the cell number change came to 33.5%. Also, the AC50 under setting [2] is 13 µM [rising, partial curve, poor fit]. The AC50 under setting [1] was 29.1 µM [rising, single point].
For the compound `COc1ccccc1OCCCC(=O)Nc1nnc(C2CCCO2)s1` (configuration not stated), the cell number change was 40.6%. Further, under setting [2], the AC50 was 8.2 µM [rising, partial curve, poor fit]. Also, the AC50 under setting [1] was 5.8 µM [rising, single point].
For the compound `Cc1ccc(S(=O)(=O)N2CCN(CC(=O)N/N=C\c3ccc(Cl)c([N+](=O)[O-])c3)CC2)cc1`, the cell number change was -14.8%. In addition, the AC50 under setting [1] was 16.4 µM [falling, single point].
Turning to `O=C(NCc1ccccn1)C(=O)Nc1nc(-c2ccccc2)cs1`, the cell number change worked out at 21.7%. The concentration at half-maximal activity (AC50) under setting [1] is 4.61 µM [rising, partial curve, poor fit].
With `CN1CCN(C(=O)c2ccc3c(c2)N(Cc2ccccc2F)C(=O)c2ccccc2S3=O)CC1` (configuration not stated), the cell number change is 0.288%. For the same compound, under setting [1], the concentration at half-maximal activity (AC50) is 0.731 µM [rising, full curve].
With `O=C(O)c1ccc([N+](=O)[O-])c(CS(=O)(=O)c2ccccc2)c1`, the AC50 under setting [1] was 0.731 µM [falling, full curve].
Turning to `Cc1ccc(C(=O)N2CC(C)CC(C)C2)cc1S(=O)(=O)N1CCCCC1` (configuration not stated), the cell number change was -10.9%. Moreover, the AC50 under setting [2] is 2.31 µM [falling, single point].
With `c1ccc(CCSc2ncnc3nc[nH]c23)cc1`, the cell number change came out at 0.326%. The AC50 under setting [1] was 2.06 µM [rising, single point].
`Cc1ccc(F)cc1NC(=O)COC(=O)c1ccc2ncsc2c1`: the cell number change was -21.9%. Further, under setting [1], the AC50 is 6.51 µM [rising, partial curve, poor fit].
With `O=C(NCc1ccco1)c1cc2nc(C3CC3)cc(C(F)(F)F)n2n1`, the cell number change stood at 31.6%. The AC50 under setting [2] was 18.4 µM [rising, single point]. Moreover, the AC50 under setting [1] was 0.146 µM [rising, full curve, poor fit].
For the compound `CCCC(C)NC(=O)c1sc2nc3n(c(=O)c2c1C)CCC3` (configuration not stated), the cell number change is -23.4%. For the same compound, the AC50 under setting [2] was 1.84 µM [falling, partial curve]. The half-maximal activity concentration (AC50) under setting [1] was 1.84 µM [falling, full curve].
With `CCOC(=O)C(/C=C(\C#N)C(=O)OCC)=C(/N)N1CCN(c2ccc(OC)cc2)CC1`, the cell number change was 0.702%. Moreover, the AC50 under setting [1] was 25.9 µM [rising, partial curve].

The record behind these values is PubChem BioAssay AID2685 (National Center for Advancing Translational Sciences (NCATS), 2010).
